In PubChem BioAssay AID504444 (National Center for Advancing Translational Sciences (NCATS), 2011):
Out of some 360,000 compounds screened, about 7,500 (2.1%) were called active. The shares of active, inactive and inconclusive entries below differ from those in the screen. The call rests on the fitted dose curve; in most records, active means well fitted inhibition curve with a large enough effect; inconclusive means small, poorly fitted or top-dose-only effect, or effect the other way; inactive means flat fitted curve, though single readings scatter. Where the call is inconclusive, the potency comes from a doubtful curve fit.

Assay: Nrf2 qHTS screen for inhibitors; further: nearly all actives have a fitted effect of over 60% in size
Conditions: A549 ARE-Fluc reporter, luciferase luminescence, 18-24 h; series mostly up to 46 µM
In short: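 A549 ARE_Fluc cells, 5000/well, 5% FBS OPTI-MEM; compounds in dose-response, 18-24 h at 37 °C/5% CO2; CellTiter-Fluor viability read (Ex 405/Em 525), then BugLite luciferase luminescence = Nrf2 activity.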
Potency means the concentration at half of the fitted maximal effect.

Structure (SMILES)	Potency
[O-]C(=C(C(=S)Nc1cccc2ccccc12)[n+]1ccccc1)c1ccc2c(c1)OCCO2	inconclusive: 29.1 µM [activator, single point]
CC(C)(C)NC(=O)CSc1nc2ccc(Nc3nc(N4CCOCC4)nc(N4CCOCC4)n3)cc2s1	inconclusive: 16.4 µM [falling, single point]
Cc1c(C(=O)/C=C/N(C)C)nnn1-c1ccc(Cl)cc1Cl	inconclusive: 29.1 µM [activator, single point]
CCC(=O)Nc1nc2ccc([N+](=O)[O-])cc2s1	inconclusive: 18.4 µM [activator, partial curve]
O=C(/C=C/c1ccco1)NCc1ccc(F)cc1	inconclusive: 13 µM [activator, partial curve, poor fit]
NC(=S)n1[nH]c(-c2ccc([N+](=O)[O-])cc2)c(N=Nc2ccccc2[N+](=O)[O-])c1=O	inactive
Cc1ccc(-c2cc3c(nn2)-c2ccccc2C3=O)cc1	inconclusive: 14.6 µM [falling, single point]
CCC(c1nnnn1CS(=O)(=O)c1ccc(C)cc1)N1CCN(c2nc3ccccc3s2)CC1 (stereo not given)	active: 8.2 µM
O=C(Nc1cc(Sc2nc3ccccc3s2)cc([N+](=O)[O-])c1)c1cccc(F)c1F	inconclusive: 29.1 µM [falling, single point]
COc1cccc(-c2ccc(NC(=O)C3CCCN(Cc4ccco4)C3)cc2)c1 (stereo not given)	inconclusive: 32.6 µM [falling, single point]
CCCc1[nH]nc2c1C(c1ccc(OC(=O)N3CCOCC3)cc1)C(C#N)=C(N)O2 (stereo not given)	inconclusive: 18.4 µM [activator, single point]
COc1ccc2c(c1)C(C)=CC(C)(C)N2S(=O)(=O)c1ccc(C)cc1	inconclusive: 3.66 µM [activator, full curve]
CCOC(=O)Nc1ccc2c(CN3CCN(S(=O)(=O)c4ccccc4)CC3)cc(=O)oc2c1	inconclusive: 0.731 µM [falling, partial curve, poor fit]
COc1ccc(OC)c(-c2cc(C(=O)N3CCCc4ccccc43)no2)c1	inconclusive: 4.61 µM [falling, full curve, poor fit]
Oc1cccc(C(Nc2ccccn2)c2ccc3cccnc3c2O)c1Cl (stereo not given)	inconclusive: 10.3 µM [falling, partial curve, poor fit]
COc1ccc(S(=O)(=O)N2CCCCC2)cc1NC(=O)COc1ccccc1	inactive
Cc1cc(C)cc(OCC(=O)Nc2ccc(N3CCCC3)cc2)c1	inconclusive: 29.1 µM [falling, single point]
Cc1c(CCOC(=O)c2ccc(Cl)cc2Cl)sc[n+]1CC(=O)c1ccc(Br)cc1	inactive
CC(=O)Cn1cnc2c(sc3nc(C)cc(C)c32)c1=O	inconclusive: 0.058 µM [activator, full curve, poor fit]
CCOc1ncccc1C(=O)NNC(=O)c1ccc(NS(=O)(=O)c2cccs2)cc1	inactive

Quoted from the listing:
O=C(/C=C/c1ccco1)NCc1ccc(F)cc1 – Potency: inconclusive: 13 µM [activator, partial curve, poor fit]
COc1ccc(OC)c(-c2cc(C(=O)N3CCCc4ccccc43)no2)c1 – Potency: inconclusive: 4.61 µM [falling, full curve, poor fit]

Going on with the list:

Structure (SMILES)	Potency
CCCCn1c(SCC(=O)Nc2nnc(C(C)C)s2)nc2c1c(=O)n(C)c(=O)n2C	active: 7.31 µM
CCC(C)(C)NC(=O)CCCSc1nc2ccccc2s1	inactive
CCn1c(CN2CCC(C)CC2)nc2cc(NC(=O)c3ccccc3[N+](=O)[O-])ccc21	inactive
CSCCC(NC(=O)c1cccc([N+](=O)[O-])c1)c1nc2ccccc2[nH]1 (stereo not given)	inconclusive: 32.6 µM [falling, partial curve, poor fit]
CC(C)[C@H](NC(=O)Nc1cccc(Br)c1)C(=O)O	inconclusive: 29.1 µM [falling, single point]
CCOc1ccc(-n2c(Cc3ccccc3)nnc2SCc2nc(-c3ccccc3C)no2)cc1	inconclusive: 23.1 µM [falling, single point]
COc1cc(CCC(=O)Nc2ccc(Cl)c(C(F)(F)F)c2)cc(OC)c1OC	inconclusive: 29.1 µM [falling, single point]
CCOc1ccc(C(=O)/C=C/c2cc(OC)c(OC)c(OC)c2)cc1	inconclusive: 29.1 µM [falling, single point]
COc1cc(-c2nc(-c3cccc(C)c3)no2)cc(OC)c1OC	inconclusive: 25.9 µM [activator, partial curve, poor fit]
CCOc1ccc(-n2c(-c3ccc(Cl)cc3)c[n+]3c2SCC3)cc1	inactive
CCS(=O)(=O)N1CCc2cc(C(=O)N3CCN(c4cccc(C(F)(F)F)c4)CC3)ccc21	inactive
Cc1ccc(NC(=O)C(=O)NCC(c2cccnc2)N2CCOCC2)cc1C (stereo not given)	inconclusive: 29.1 µM [falling, single point]
O=C(c1ccc(COc2ccc(Cl)cc2)o1)N1N=C(C(F)F)CC1(O)C(F)F (stereo not given)	inconclusive: 23.1 µM [falling, partial curve]
COc1cccc(NC(=O)c2ccc(-c3ccccc3[N+](=O)[O-])o2)c1	inconclusive: 46.1 µM [falling, partial curve, poor fit]
O=C(NOCc1ccccc1)c1ccc(Cl)cc1	inconclusive: 2.31 µM [activator, partial curve]
O=C(CSc1nnc(-c2ccccc2Br)o1)N1CCOCC1	inconclusive: 1.84 µM [activator, partial curve, poor fit]
O=C(O)c1ccc2c(c1)C(=O)N([C@H](Cc1c[nH]c3ccccc13)C(=O)O)C2=O	inactive
Cn1cc(C(c2ccccc2OCC(=O)O)c2cn(C)c3ccccc23)c2ccccc21	inconclusive: 23.1 µM [falling, single point]
C#CCOCCOCCOCCNc1nc(N2CCN(C(=O)CCCCCCCCCCNC(=O)[C@H](CCCCN)n3cc(C[C@@H](C)CC)nn3)CC2)nc(N2CCN(C(=O)CCCCCCCCCCNC(=O)[C@H](CCCCN)n3cc(C[C@@H](C)CC)nn3)CC2)n1	inconclusive: 20.6 µM [falling, single point]
O=C(Nc1ccccc1F)c1ccc2snnc2c1	inconclusive: 9.2 µM [activator, partial curve]
